In paper doi:10.1101/2021.03.31.437821:
These are yes or no findings as the source states them, for the method shown. In cells and extracts the contact can be indirect. A result given as binding can be weak or reduced; the word gives no strength.

Biological target: ZFP804A (rodent homologue of ZNF804A) (rat (endogenous in primary cortical neurons))
Assay: co-IP

binding: binds
B1: NT5C2 (rodent, endogenous in cortical neurons) (protein, UniProt D3ZMY7 1-560)
chain: MMTSWSDRLQNAADVPANMDKHALKKYRREAYHRVFVNRSLAMEKIKCFGFDMDYTLAVYKSPEYESLGFELTVERLVSIGYPQELLNFAYDSTFPTRGLVFDTLYGNLLKVDAYGNLLVCAHGFNFIRGPETREQYPNKFIQRDDTERFYILNTLFNLPETYLLACLVDFFTNCPRYTSCDTGFKDGDLFMSYRSMFQDVRDAVDWVHYKGSLKEKTVENLEKYVVKDGKLPLLLSRMKEVGKVFLATNSDYKYTDKIMTYLFDFPHGPKPGSSHRPWQSYFDLILVDARKPLFFGEGTVLRQVDTKTGKLKIGTYTGPLQHGIVYSGGSSDTICDLLGAKGKDILYIGDHIFGDILKSKKRQGWRTFLVIPELAQELHVWTDKSSLFEELQSLDIFLAELYKHLDSSSNERPDISSIQRRIKKVTHDMDMCYGMMGSLFRSGSRQTLFASQVMRYADLYAASFINLLYYPFSYLFRAAHVLMPHESTVEHTHVDINEMESPLATRNRTSVDFKDTDYKRHQLTRSISEIKPPNLFPLAPQEITHCHDEDDDEEEEEEE
